US6770638B2, “Tetrahydroindolone and purine derivatives linked to arylpiperazines” (Spectrum Pharmaceuticals, Inc., priority 2001, dated 2004)
At least one structure is not confirmed: it was looked up by name or label, or the drawing left a doubt.

System: mice
Assay: Conditioned avoidance responding (CAR, active avoidance)
Type: in vivo
Details: SC to mice, 20 minutes before test session
Protocol: Training: Consists of 20 trials with variable inter-trial intervals (Trained to 80% Avoidance Criteria). After a one-minute acclimation period, the house light and an acoustic 90 dB tone (conditioned stimuli) are presented. A response (crossing to dark compartment) within 5 seconds ends the trial and trial is recorded as avoidance response (CAR). […] To avoid shock, animals learn to move from the lighted side of the -chamber to the dark side when the cue is presented (avoidance) or moved when the shock is administered (escape). Testing: Vehicle or test compounds are administered S.C. 20 minutes before the test session. (Checking for disruption of cognition and attention)

CN1CCN(C2=Nc3cc(Cl)ccc3Nc3ccccc32)CC1 [Clozapine, clozapine, reference compound]
Conditioned Avoidance Responding, effect on avoidance: Significant reduction in avoidance
Conditioned Avoidance Responding, effect on latency: Significant increase in latency
